Source: PubChem BioAssay AID493014 (National Center for Advancing Translational Sciences (NCATS), 2011)
The list shows a part of the results. The main result of the screen is listed elsewhere. These columns were measured beside it and carry no call. Compounds called inactive in the main read-out are mostly missing here. Words in brackets tell the shape of the fitted curve; partial curves, single points and poor fits give uncertain potencies.

Assay: qHTS Assay to Find Inhibitors of Chronic Active B-Cell Receptor Signaling
Details: ABC-DLBCL IkBa-CBG/CBR reporter, luminescence ratio (green luciferase fused to IkBa over red control in TMD8 lymphoma cells), 4 h
Outline: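 Cell line TMD8 (human ABC DLBCL), stably expressing tet-inducible CBG68-IkBa fusion and CBR; IMDM/0.5% FBS; cpd up to 46 uM; dox induction, 4 h, 37C/5% CO2; dual luminescence; green/red ratio; MG132 control.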

[1] = measured here: CBR red luminescence, cell number

S=c1[nH]nc(-c2ccncc2)n1/N=C/c1cccc2ccccc12
AC50 [1]: 0.92 µM [rising, full curve, poor fit]

COc1ccc(CC(=O)NCc2ccc3c(c2)CCN3C(=O)c2ccc(Cl)cc2)cc1OC
AC50 [1]: 20 µM [falling, single point]

COc1cc(SC)ccc1C(=O)Nc1ccc(C)cc1
AC50 [1]: 11.2 µM [falling, partial curve, poor fit]

O=C(N/N=C/c1cccnc1)c1cc(-c2ccccc2OCc2ccccc2)n[nH]1
AC50 [1]: 11.2 µM [falling, partial curve]

COc1ccccc1NS(=O)(=O)c1cc(NC(=O)c2cccs2)ccc1N1CCCCC1
AC50 [1]: 23.1 µM [falling, partial curve, poor fit]

c1ccc(-c2csc(Nc3ccccn3)n2)cc1
AC50 [1]: 2.24 µM [falling, full curve]

O=C(Cn1nc(Cc2cccnc2)c2ccccc2c1=O)Nc1ccc2c(c1)OCO2
AC50 [1]: 23.1 µM [rising, single point]

CCOCCCn1c(SCC(=O)Nc2cc(C(C)(C)C)nn2-c2ccccc2)nc2ccccc2c1=O
AC50 [1]: 25.9 µM [falling, single point]

Cc1cc(C)nc(N/N=C/c2cccc(Cl)c2)n1
AC50 [1]: 14.1 µM [falling, single point]

COc1ccc(NC(=O)CN2CCN(S(=O)(=O)c3ccc(Br)cc3)CC2)c(OC)c1
AC50 [1]: 0.562 µM [rising, partial curve, poor fit]

Nc1c2c(nc3sc4c(c13)CCCC4)-c1ccccc1CC2
AC50 [1]: 2.82 µM [rising, partial curve, poor fit]

O=c1c(-c2ccc(Cl)cc2)c[nH]n1-c1ccccc1
AC50 [1]: 0.398 µM [falling, full curve]

Cc1c(NC(=O)CSc2nnc(C(C)Oc3ccc(Cl)cc3)n2-c2ccccc2)c(=O)n(-c2ccccc2)n1C (centres undefined)
AC50 [1]: 7.08 µM [falling, partial curve, poor fit]

Cc1ccc(NC(=O)c2cc(-c3ccc(C)o3)nc3ccccc23)cc1
AC50 [1]: 17.8 µM [falling, single point]

O=C(/C=C/c1ccccc1)Nc1ccc(C(=O)N2CCCCC2)cc1
AC50 [1]: 6.31 µM [falling, single point]

O=c1c(-c2ccc(Cl)cc2)[n+]([O-])c2ccccc2n1O
AC50 [1]: 1.46 µM [rising, partial curve]

Cc1ccc(C(=O)Nc2ccc3c(c2)C(=O)NC3=O)cc1
AC50 [1]: 0.891 µM [falling, full curve, poor fit]

Cc1ccc(C(=O)Nc2nc(C)c(C(=O)Nc3ccc4c(c3)CCC4)s2)cc1
AC50 [1]: 3.26 µM [rising, partial curve, poor fit] | AC50 (measured here: IkBa-CBG green luminescence): 3.66 µM [falling, full curve]
